Patent US20190359955A1
Results are given in words; binding and its absence hold for the method and conditions named. In cells and extracts the contact can be indirect. Some entries that bind do so weakly or less than the wild type.

By UniProt entry, the sequences of proteins in these tests, tags left out. Where a name states a change or a piece, a line headed by the entry shows the natural chain unless it says otherwise. Residues count along the entry.
UniProt P0CE47, residues 2-394: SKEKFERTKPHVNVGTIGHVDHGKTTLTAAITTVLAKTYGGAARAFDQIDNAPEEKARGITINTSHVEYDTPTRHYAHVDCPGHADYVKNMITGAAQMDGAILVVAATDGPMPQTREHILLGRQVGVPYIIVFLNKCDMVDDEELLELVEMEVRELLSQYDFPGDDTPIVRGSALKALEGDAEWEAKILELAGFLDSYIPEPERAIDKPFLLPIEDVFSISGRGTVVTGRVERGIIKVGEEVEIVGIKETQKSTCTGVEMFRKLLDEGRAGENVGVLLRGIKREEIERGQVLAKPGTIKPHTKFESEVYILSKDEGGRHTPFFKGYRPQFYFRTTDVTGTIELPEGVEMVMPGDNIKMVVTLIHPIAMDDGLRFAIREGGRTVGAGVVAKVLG
UniProt A7ZHR0: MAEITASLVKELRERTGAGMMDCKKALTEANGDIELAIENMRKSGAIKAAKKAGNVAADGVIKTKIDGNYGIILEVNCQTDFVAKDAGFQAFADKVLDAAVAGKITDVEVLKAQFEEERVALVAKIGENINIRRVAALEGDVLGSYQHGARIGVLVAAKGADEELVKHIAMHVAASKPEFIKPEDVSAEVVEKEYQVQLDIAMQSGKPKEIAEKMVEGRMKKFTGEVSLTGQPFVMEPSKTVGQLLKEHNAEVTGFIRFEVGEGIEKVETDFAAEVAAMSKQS

Molecular target: protein Tu (UniProt P0CE47)
Assay: co-purification in a protein purification experiment (data not shown)

elongation factor Ts (Tsf) (from UniProt A7ZHR0 1-283)
binding: binds
